# Measured values published in patent US20160115245A1 (VIB VZW, published 2016).
# Sequences of proteins named here, by UniProt entry; tags and fusion partners are left off. Residues count along the entry.
# UniProt P08228, residues 2-154: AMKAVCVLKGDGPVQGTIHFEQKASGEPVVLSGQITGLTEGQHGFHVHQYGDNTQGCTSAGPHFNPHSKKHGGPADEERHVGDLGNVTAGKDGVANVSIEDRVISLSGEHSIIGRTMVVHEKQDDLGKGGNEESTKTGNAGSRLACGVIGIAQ
# UniProt P00441, residues 2-154: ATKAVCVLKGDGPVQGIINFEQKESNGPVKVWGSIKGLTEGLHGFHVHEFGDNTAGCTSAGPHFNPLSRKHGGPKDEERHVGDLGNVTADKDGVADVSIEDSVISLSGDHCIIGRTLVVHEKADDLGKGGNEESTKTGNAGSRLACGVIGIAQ
# Results are given in words; binding and its absence hold for the method and conditions named. For some assays here: Binding seen in cells or lysates may run through a third protein. Some results given as binding are weak or reduced against the parent protein; the word gives no strength. Sequences can lack the tags named with a protein.
# Assays:
# [1] = target: endogenous SOD1 of NSC-34 cells (mouse) (UniProt P08228); assay: co-immunoprecipitation with anti-SOD1 (IP SOD1), Western blot anti-His (WB HIS); non-transfected NSC-34 cells with nanobody added to the medium
# [2] = target: recombinant human superoxide dismutase [Cu-Zn] (SOD1), wild type (human) (UniProt P00441); assay: Western dot blot on immobilized recombinant SOD1
# [3] = target: SOD1-CFP (human SOD1 fused to CFP, expressed in HeLa cells) (human) (UniProt P00441); assay: Ni-agarose pull-down from co-transfected HeLa cells
# [4] = target: endogenous SOD1 of NSC-34 cells (mouse) (UniProt P08228); assay: immunoprecipitation from lysates of co-transfected NSC-34 cells
binder,measurement,setting,value
"SOD1 nanobody protein with His tag and mCaspase-3 recognition site (Nb2, produced by VIB Protein Service Facility) (VHH, not shown: small tags and cut ends) VHH: QVQLQESGGGSVQAGGSLRLACVASGGDTRPYITYWMGWYRQAPGKEREGVATIYTGGSGTYYSDSVEGRFTISQDKAQRTVYLQMNDLKPEDTAMYYCAAGNGALPPGRRLSPQNMDTWGPGTQVTVSS",binding,[1],binds
"Nb1, His6-tagged, expressed in E. coli (pET30a) (VHH, Alpaca-derived nanobody; also called SOD1 nanobody from alpaca library; not shown: His6 tag and the pET30a vector residues around it) VHH: QVQLQESGGGLVQPGGSLRLSCRASETLFSLYAMGWYRQAPGKQPELIATISGGGEGTGNYADPVKGRFTISRNNADNMVFLQMNNLKPEDTAVYYCNVYGTNLAPWGQGTQVTVSS",binding,[2],binds
"Nb1, HA-Myc-His6 tagged, expressed in HeLa cells (VHH, not shown: small tags and cut ends) VHH: QVQLQESGGGLVQPGGSLRLSCRASETLFSLYAMGWYRQAPGKQPELIATISGGGEGTGNYADPVKGRFTISRNNADNMVFLQMNNLKPEDTAVYYCNVYGTNLAPWGQGTQVTVSS",binding,[3],binds
"Nb3, HA-Myc-His6 tagged, expressed in HeLa cells (VHH, not shown: small tags and cut ends) VHH: QVQLQESGGGLVQAGGSLRLSCAASGLPYRTVFMGWFRQGPGKEREGVAVINADGVSTYYADSVKGRFTISQDNAKNTVYLQMNSLKPEDTAIYHCAANHFFDYSRDPLATAEYNYWGQGTQVTVSS",binding,[3],binds
"HA-tagged anti-SOD1 nanobody expressed in NSC-34 cells (Nb2) (VHH, not shown: small tags and cut ends) VHH: QVQLQESGGGSVQAGGSLRLACVASGGDTRPYITYWMGWYRQAPGKEREGVATIYTGGSGTYYSDSVEGRFTISQDKAQRTVYLQMNDLKPEDTAMYYCAAGNGALPPGRRLSPQNMDTWGPGTQVTVSS",binding,[4],binds
